US9134318B2, “Detection of oxidized polypeptides” (Purdue Research Foundation, priority 2009, dated 2015)
For part of these data: The amount applied is not stated for every result.

B1: M26I: Recombinant human DJ-1 with the M26I substitution, a familial Parkinson's disease mutant (protein, UniProt Q99497 1-189, looked up, variant M26I)
chain: MASKRALVILAKGAEEMETVIPVDVIRRAGIKVTVAGLAGKDPVQCSRDVVICPDASLEDAKKEGPYDVVVLPGGNLGAQNLSESAAVKEILKEQENRKGLIAAICAGPTALLAHEIGFGSKVTTHPLAKDKMMNGGHYTYSENRVEKDGLILTSRGPGTSFEFALAIVEALNGKEVAAQVKAPLVLKD
B2: C4b-binding protein alpha chain precursor (C4bp) (protein, UniProt P04003 49-597, looked up)
C4b-binding protein alpha …: NCGPPPTLSFAAPMDITLTETRFKTGTTLKYTCLPGYVRSHSTQTLTCNSDGEWVYNTFCIYKRCRHPGELRNGQVEIKTDLSFGSQIEFSCSEGFFLIGSTTSRCEVQDRGVGWSHPLPQCEIVKCKPPPDIRNGRHSGEENFYAYGFSVTYSCDPRFSLLGHASISCTVENETIGVWRPSPPTCEKITCRKPDVSHGEMVSGFGPIYNYKDTIVFKCQKGFVLRGSSVIHCDADSKWNPSPPACEPNSCINLPDIPHASWETYPRPTKEDVYVVGTVLRYRCHPGYKPTTDEPTTVICQKNLRWTPYQGCEALCCPEPKLNNGEITQHRKSRPANHCVYFYGDEISFSCHETSRFSAICQGDGTWSPRTPSCGDICNFPPKIAHGHYKQSSSYSFFKEEIIYECDKGYILVGQAKLSCSYSHWSAPAPQCKALCRKPELVNGRLSVDKDQYVEPENVTIQCDSGYGVVGPQSITCSGNRTWYPEVPKCEWETPEGCEQVLTGKRLMQCLPNPEDVKMALEVYKLSLEIEQLELQRDSARQSTLDKEL

How the values were obtained:
[1] = Controlled H2O2 oxidation of DJ-1, proteolytic 18O labeling and LC/MS/MS quantitation of oxidative modifications (Table 13); design: species or system Human; conditions: Mean ± SEM, N = 3
[2] = tested on: carbonylated peptides (carbonylation sites) of plasma proteins; assay: SRM relative quantification of carbonylation sites, diabetic vs lean rat plasma (Example 5, Table 15); assay type: in vivo, Zucker diabetic and lean rats
[3] = 10-fold molar excess H2O2, treated/untreated
[4] = 500-fold molar excess H2O2, treated/untreated

Molecule	Mass spectral ratio, C106 sulfinic acid [1, 3]	Mass spectral ratio, M133 sulfoxide [1, 3]	Mass spectral ratio, M134 sulfoxide [1, 3]	Mass spectral ratio, C53 sulfonic acid ([1]; 500-fold molar excess H2O2, 18O H2O2-treated / 16O untreated peptide)	Mass spectral ratio, C106 sulfinic acid [1, 4]	Mass spectral ratio, C106 sulfonic acid [1, 4]	Mass spectral ratio, M133 sulfoxide [1, 4]	Mass spectral ratio, M134 sulfoxide [1, 4]	Ratio (diabetic plasma pooled sample/lean plasma pooled sample) replicate 1 ([2]; SRM of the peptide carrying the carbonylation site (modification and site in the same table row), pooled Zucker diabetic vs lean rat plasma, replicate 1)	Ratio (diabetic plasma pooled sample/lean plasma pooled sample) replicate 2 ([2]; SRM of the peptide carrying the carbonylation site (modification and site in the same table row), pooled Zucker diabetic vs lean rat plasma, replicate 2)	Average ([2]; average of replicate 1 and 2 ratios, diabetic/lean pooled plasma, SRM, per carbonylation site)	Average (diabetic/lean rat plasma pooled sample) ([2]; carbonylated peptide: K224 Biotinylated oxidized lysine, R: 228 Biotinylated oxidized arginine, sites 224, 228 (gi|2493792), SRM ratio)
B1	2.8 ± 0.8	0.2 ± 0.1	0.2 ± 0.1	4.0 ± 0.4	4.0 ± 0.6	4.1 ± 0.4	2 ± 2	0.39 ± 0.02				
B2									0.15	0.11	0.13	0.13
